Results: US20250101043A1, “KRAS INHIBITORS” (Eli Lilly and Company, priority 2023, published 2025)
Some results were stated once for a whole list of compounds, not compound by compound.

Biological target: T1, KRas wild-type (Homo sapiens, UniProt P01116)
T1 construct: host or cells: MKN-45 human gastric adenocarcinoma cells
Assay: MKN-45 Cellular Active RAS GTPase ELISA (KRas Wild-Type)
Assay type: cell-based
Conditions: PANC-1 Cellular Active RAS GTPase ELISA versus MKN-45 Cellular Active RAS GTPase ELISA

Row | Structure (SMILES) | selective inhibition preference for KRas G12D mutant over KRas wild-type
1 | CC(Oc1nc(N2C3CCC2CN(C)C3)c2c3c(c(-c4ncc(F)c5sc(N)c(C#N)c45)c(F)c2n1)COC3)[C@@H]1C[C@@H](F)CN1C.CS(=O)(=O)O (single isomer, unassigned; isomer 1) [Example 16] | greater than 10 fold
2 | CC(Oc1nc(N2C3CCC2CN(C[C@@H](C)O)C3)c2c3c(c(-c4ncc(F)c5sc(N)c(C#N)c45)c(F)c2n1)COC3)[C@@H]1[C@@H](F)CCN1C (single isomer, unassigned; isomer 1) [Example 1] | greater than 10 fold
3 | CC(Oc1nc(N2C3CCC2CN(C)C3)c2c3c(c(-c4ncc(F)c5sc(N)c(C#N)c45)c(F)c2n1)COC3)[C@@H]1C[C@@H](F)CN1C (single isomer, unassigned; isomer 1) [Example 4] | greater than 10 fold
4 | C[C@H](Oc1nc(N2C3CCC2CN(C)C3)c2c3c(c(-c4ncc(F)c5sc(N)c(C#N)c45)c(F)c2n1)COC3)[C@@H]1CCCN1C [Example 10, 2-Amino-7-fluoro-4-(5-fluoro-1-(3-methyl-3,8-diazabicyclo[3.2.1]octan-8-yl)-3-((S)-1-((S)-1-methylpyrrolidin-2-yl)ethoxy)-7,9-dihydrofuro[3,4-f]quinazolin-6-yl)thieno[3,2-c]pyridine-3-carbonitrile] | greater than 10 fold
5 | C[C@@H](Oc1nc(N2C3CCC2CN(C)C3)c2c3c(c(-c4ncc(F)c5sc(N)c(C#N)c45)c(F)c2n1)COC3)[C@@H]1CCCN1C [Example 11, 2-Amino-7-fluoro-4-(5-fluoro-1-(3-methyl-3,8-diazabicyclo[3.2.1]octan-8-yl)-3-((R)-1-((S)-1-methylpyrrolidin-2-yl)ethoxy)-7,9-dihydrofuro[3,4-f]quinazolin-6-yl)thieno[3,2-c]pyridine-3-carbonitrile] | greater than 10 fold
6 | CO[C@@H]1C[C@@H](C(C)Oc2nc(N3C4CCC3CN(C[C@@H](C)O)C4)c3c4c(c(-c5ncc(F)c6sc(N)c(C#N)c56)c(F)c3n2)COC4)N(C)C1.CS(=O)(=O)O (single isomer, unassigned; isomer 1) [Example 17] | greater than 10 fold
7 | CS(=O)(=O)O.C[C@H](Oc1nc(N2C3CCC2CN(C)C3)c2c3c(c(-c4ncc(F)c5sc(N)c(C#N)c45)c(F)c2n1)COC3)[C@@H]1CCCN1C [Example 20, 2-Amino-7-fluoro-4-(5-fluoro-1-(3-methyl-3,8-diazabicyclo[3.2.1]octan-8-yl)-3-((S)-1-((S)-1-methylpyrrolidin-2-yl)ethoxy)-7,9-dihydrofuro[3,4-f]quinazolin-6-yl)thieno[3,2-c]pyridine-3-carbonitrile methanesulfonic acid] | greater than 10 fold
8 | COCCN1CC2CCC(C1)N2c1nc(OC(C)[C@@H]2C[C@@H](OC)CN2C)nc2c(F)c(-c3ncc(F)c4sc(N)c(C#N)c34)c3c(c12)COC3 (single isomer, unassigned; isomer 1) [Example 7] | greater than 10 fold
9 | COCCN1CC2CCC(C1)N2c1nc(O[C@@H](C)[C@@H]2CCCN2C)nc2c(F)c(-c3ncc(F)c4sc(N)c(C#N)c34)c3c(c12)COC3.CS(=O)(=O)O [Example 21, 2-Amino-7-fluoro-4-(5-fluoro-1-(3-(2-methoxyethyl)-3,8-diazabicyclo[3.2.1]octan-8-yl)-3-((S)-1-((S)-1-methylpyrrolidin-2-yl)ethoxy)-7,9-dihydrofuro[3,4-f]quinazolin-6-yl)thieno[3,2-c]pyridine-3-carbonitrile methanesulfonic acid] | greater than 10 fold
10 | COCCN1CC2CCC(C1)N2c1nc(OC(C)[C@@H]2C[C@@H](OC)CN2C)nc2c(F)c(-c3ncc(F)c4sc(N)c(C#N)c34)c3c(c12)COC3.CS(=O)(=O)O (single isomer, unassigned; isomer 1) [Example 18] | greater than 10 fold
11 | COCCCN1CC2CCC(C1)N2c1nc(OC(C)[C@@H]2C[C@@H](OC)CN2C)nc2c(F)c(-c3ncc(F)c4sc(N)c(C#N)c34)c3c(c12)COC3 (single isomer, unassigned; isomer 1) [Example 8] | greater than 10 fold
12 | CC(Oc1nc(N2C3CCC2CN(C[C@@H](C)O)C3)c2c3c(c(-c4ncc(F)c5sc(N)c(C#N)c45)c(F)c2n1)COC3)[C@@H]1C[C@@H](F)CN1C (single isomer, unassigned; isomer 1) [Example 2] | greater than 10 fold
13 | CO[C@@H]1C[C@@H](C(C)Oc2nc(N3C4CCC3CN(C[C@@H](C)O)C4)c3c4c(c(-c5ncc(F)c6sc(N)c(C#N)c56)c(F)c3n2)COC4)N(C)C1 (single isomer, unassigned; isomer 1) [Example 6] | greater than 10 fold
14 | COCCCN1CC2CCC(C1)N2c1nc(OC(C)[C@@H]2C[C@@H](OC)CN2C)nc2c(F)c(-c3ncc(F)c4sc(N)c(C#N)c34)c3c(c12)COC3.CS(=O)(=O)O (single isomer, unassigned; isomer 1) [Example 19] | greater than 10 fold
15 | C[C@H](Oc1nc(N2C3CCC2CN(C[C@@H](C)O)C3)c2c3c(c(-c4ncc(F)c5sc(N)c(C#N)c45)c(F)c2n1)COC3)[C@@H]1CCCN1C [Example 12, 2-Amino-7-fluoro-4-(5-fluoro-1-(3-((R)-2-hydroxypropyl)-3,8-diazabicyclo[3.2.1]octan-8-yl)-3-((S)-1-((S)-1-methylpyrrolidin-2-yl)ethoxy)-7,9-dihydrofuro[3,4-f]quinazolin-6-yl)thieno[3,2-c]pyridine-3-carbonitrile] | greater than 10 fold
16 | COCCCN1CC2CCC(C1)N2c1nc(O[C@@H](C)[C@@H]2CCCN2C)nc2c(F)c(-c3ncc(F)c4sc(N)c(C#N)c34)c3c(c12)COC3.CS(=O)(=O)O [Example 15, 2-Amino-7-fluoro-4-(5-fluoro-1-(3-(3-methoxypropyl)-3,8-diazabicyclo[3.2.1]octan-8-yl)-3-((S)-1-((S)-1-methylpyrrolidin-2-yl)ethoxy)-7,9-dihydrofuro[3,4-f]quinazolin-6-yl)thieno[3,2-c]pyridine-3-carbonitrile methanesulfonic acid] | greater than 10 fold
